Laboratory results published in US6527981B1, “Azole/amine oxide preservatives” (Lonza Inc., priority 1999, dated 2003).

Assay: corrosivity on low carbon steel coupon
Details: room temperature, 1% by weight

Didecyldimethyl ammonium carbonate [didecyl dimethyl ammonium carbonate]
No Corrosion: Observation after 14 Days | Observation after 24 Days | Observation after 24 hours
